We go through one substance from article PMC9166793.

Protein sequences, listed by entry. Tags and fused reporters are not part of them.
UniProt P18760: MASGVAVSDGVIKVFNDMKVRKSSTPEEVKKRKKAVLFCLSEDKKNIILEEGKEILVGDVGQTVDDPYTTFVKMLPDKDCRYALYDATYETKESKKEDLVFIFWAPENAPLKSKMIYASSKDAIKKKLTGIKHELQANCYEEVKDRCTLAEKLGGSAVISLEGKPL

These are yes or no findings as the source states them, for the method shown. Binding seen in cells or lysates may run through a third protein. A yes stands for co-enrichment or nearness to the bait. Other partners may have been found. Where a sequence is shown, tags or fusion partners need not be part of it.

This assay concerns the target T1, GDAP1 tagged with an Avi-tag (Avi-HA-tagged GDAP1; ganglioside-induced differentiation-associated protein 1), biotinylated by BirA (UniProt Q8TB36).
T1 sequence (chain, biotin on the AviTag (biotinylated by BirA in the cells)): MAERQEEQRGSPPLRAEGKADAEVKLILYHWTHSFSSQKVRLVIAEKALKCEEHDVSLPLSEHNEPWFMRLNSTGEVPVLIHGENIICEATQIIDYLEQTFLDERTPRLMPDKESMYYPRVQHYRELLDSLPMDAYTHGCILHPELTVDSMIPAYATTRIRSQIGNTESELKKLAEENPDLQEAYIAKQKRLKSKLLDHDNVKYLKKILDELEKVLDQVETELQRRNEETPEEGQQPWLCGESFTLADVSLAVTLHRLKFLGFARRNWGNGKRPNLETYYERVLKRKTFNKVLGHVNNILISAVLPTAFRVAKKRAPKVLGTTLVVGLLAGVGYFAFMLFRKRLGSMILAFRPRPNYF
Kind of assay: affinity purification with mass spectrometry; biotinylated Avi-HA-GDAP1 captured on Dynabeads MyOne Streptavidin T1 (45 min, RT) from RIPA lysates of AAV-transduced primary cortical neurons of BirA mice; lysates used directly or incubated with 5 mM GSH or GSSG for 30 min at 37 °C; HA-GDAP1-transduced cultures as control; label-free quantitative LC-MS.

For the substance Cofilin-1 (from UniProt P18760 1-166), the binding result is given as “binds”.
